# The other results are listed elsewhere or left out.
# Protein sequences, listed by entry. Tags and fused reporters are not part of them.
# UniProt Q0JBA9, entry or part of it: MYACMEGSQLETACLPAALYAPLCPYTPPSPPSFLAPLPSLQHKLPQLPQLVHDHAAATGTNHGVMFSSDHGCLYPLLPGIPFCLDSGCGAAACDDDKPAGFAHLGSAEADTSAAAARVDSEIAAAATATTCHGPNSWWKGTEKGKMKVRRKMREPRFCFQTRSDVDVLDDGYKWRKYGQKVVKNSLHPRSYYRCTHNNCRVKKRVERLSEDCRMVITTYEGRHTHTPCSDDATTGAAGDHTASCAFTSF
# Molecular target: OsWRKY34 (Oryza sativa, UniProt Q0JBA9 1-250)
# Test: protein-binding microarray (RPBM); PBS, 2% BSA, 51.3 ng/ul salmon testes DNA, 50 uM zinc acetate, 200 nM TF, 25 C, 1 h; high values mean tight binding
# Conditions: protein: recombinant; tags: N-terminal polyhistidine and DsRed monomer fusion (pET32a); label: CyDye5-dUTP incorporated in the synthesized complementary strand; 3' TTTTT single-stranded linker to array surface; dsDNA, one strand shown
# Method in brief: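 Binding signal here means per-feature fluorescence intensity in arbitrary units. The values were read on an Axon 4000B scanner after a custom Agilent array, double-stranded by primer extension with Cy5-dUTP, was incubated with 200 nM protein at 25 °C for 1 h in PBS with 2% BSA, salmon testes DNA and 50 µM zinc acetate, then washed. The proteins were transcription factors with an N-terminal polyhistidine tag and DsRed, expressed in E. coli BL21-CodonPlus and purified on Ni–NTA.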
row,Sequence,binding signal
1,CCAATGTATATCTTGTTTGCTGTTGTTCTAGCATTTGTAGCGGAGTCACCTAGTGCAG,8120 fluorescence intensity (a.u.)
2,GCCTTATTCTTCATGCCTAACGCAGCCCAGCTCAGCTACGCGGAGTCACCTAGTGCAG,10600 fluorescence intensity (a.u.)
3,TAACAGTTGACACAGGGAGCGGAGGGGCAGCTTGGTCATTCGGAGTCACCTAGTGCAG,8420 fluorescence intensity (a.u.)
4,TGTATGTTATTATCTTTGTTACCCTTACATTACTTCCTTACGGAGTCACCTAGTGCAG,8760 fluorescence intensity (a.u.)
5,TCGGTCGCTGAGTTTTCCCCGTACAGACCATATGTCCCGCCGGAGTCACCTAGTGCAG,9910 fluorescence intensity (a.u.)
6,ATTGCTGCTGGTATTCTTTTCAAGTCTGGGCATTATTTTTCGGAGTCACCTAGTGCAG,10800 fluorescence intensity (a.u.)
7,GTCTCATCAACCACCGCAATTTCAATTTTCTTCACATGTGCGGAGTCACCTAGTGCAG,8450 fluorescence intensity (a.u.)
8,GCGACACCCAAACCCACGGCCCAGATCGCTTGACCCCGTCCGGAGTCACCTAGTGCAG,8620 fluorescence intensity (a.u.)
9,CTCCGTTTCACAGCGCAAGTCATTCTAGCATTTCTCACATCGGAGTCACCTAGTGCAG,9590 fluorescence intensity (a.u.)
10,ACTCAATTATCACCTCATTTTACATATCTTATTAATTTTACGGAGTCACCTAGTGCAG,9040 fluorescence intensity (a.u.)
11,GTCTAGTACATTATCTACTCCAGTGCCTACTACTACTACTCGGAGTCACCTAGTGCAG,10800 fluorescence intensity (a.u.)
12,CCACACCCATCTCCCGGCCATTTCTGCTCGCTCTCTCAGACGGAGTCACCTAGTGCAG,9090 fluorescence intensity (a.u.)
13,ACTTCTTGCTGATCTTCTTGGACTGCTTTTGCACCTTCTTCGGAGTCACCTAGTGCAG,9360 fluorescence intensity (a.u.)
14,AGCTTATTATTATTGTTGTTGTTGTATGATTGACACTAGACGGAGTCACCTAGTGCAG,9940 fluorescence intensity (a.u.)
15,CAACAAAAGCTCCATTACACGTATTTTACAATTGTTTTTCCGGAGTCACCTAGTGCAG,12000 fluorescence intensity (a.u.)
16,GCCAAACGCGCCAGATCCGCGCCTCCTCCACTCACACGCGCGGAGTCACCTAGTGCAG,8910 fluorescence intensity (a.u.)
17,TTATGCGTGACTTGTCTTTTTAATTTTTTTTATAATTTTTCGGAGTCACCTAGTGCAG,8300 fluorescence intensity (a.u.)
18,CGCCTCGTCATCGTCGTCGGCCCGGTTGCCCACCTCTTCACGGAGTCACCTAGTGCAG,8680 fluorescence intensity (a.u.)
19,TGTGTGTGTGTGTGTTGAATCATCCGACATCGTGCTATTACGGAGTCACCTAGTGCAG,12300 fluorescence intensity (a.u.)
20,GCCCCTTTTAGGTATGCTTCCTTACACCTTCATCTTCAACCGGAGTCACCTAGTGCAG,8970 fluorescence intensity (a.u.)
21,GTTAGGATTTTTTTTTCTTCCTCTGCTTCTTGGTTTGAACCGGAGTCACCTAGTGCAG,8190 fluorescence intensity (a.u.)

row,Sequence,binding signal
1,GGTTCCGCCGCTGCCGTCTCCATTGTCAATAGCCATCGACCGGAGTCACCTAGTGCAG,10700 fluorescence intensity (a.u.)
2,ATAATTCAGATGATCCTCCATTGACCATTGACCATTGCCCCGGAGTCACCTAGTGCAG,9930 fluorescence intensity (a.u.)
3,GCGGTGTGATGCCGGCACTGTGTCCTTTTCAAACATACACCGGAGTCACCTAGTGCAG,9950 fluorescence intensity (a.u.)
4,CAGCTCCGCACTGCCCCAACATCATTTTCTTGTACTCCATCGGAGTCACCTAGTGCAG,8610 fluorescence intensity (a.u.)
5,CCCTTCCACGCGCCGCCGCCGCCGATTCTTTGCTCCGTTTCGGAGTCACCTAGTGCAG,11200 fluorescence intensity (a.u.)
6,AGTATATTTTTTCGTCAACTTTACTTCAACCATCTTCCCACGGAGTCACCTAGTGCAG,10800 fluorescence intensity (a.u.)
7,AGCCTCCAACTAGTTATTTTTCTTTGAATTTGGCTAGATCCGGAGTCACCTAGTGCAG,8390 fluorescence intensity (a.u.)
8,ATATGCCTTTTTCATTCACTGGTCTCGCTACACATGCCTGCGGAGTCACCTAGTGCAG,8550 fluorescence intensity (a.u.)
9,TTTCGCTCGCCCATTTTTCTGCGTCCCGGCGGCGGTGGGGCGGAGTCACCTAGTGCAG,11200 fluorescence intensity (a.u.)
10,CATTTAAATCGCCATCACTCCGCGCGCTCTCCCATCCATCCGGAGTCACCTAGTGCAG,8870 fluorescence intensity (a.u.)
11,ACTTTATTCTTGCATTATCACACTCCACATAGTACCATTACGGAGTCACCTAGTGCAG,12600 fluorescence intensity (a.u.)
12,GTCTCCTCTTCTAATATTCCTTATTTTTTAATTCCGAATTCGGAGTCACCTAGTGCAG,9140 fluorescence intensity (a.u.)
13,TCTCCTTAAATCCTTTATATGATGCTAGGGTTCGTGTTTTCGGAGTCACCTAGTGCAG,8730 fluorescence intensity (a.u.)
14,GATTTTTGTGCAGTCTATTCGCCAACTTTGTAATTACCCCCGGAGTCACCTAGTGCAG,8130 fluorescence intensity (a.u.)
15,TTTGTGGCAGATCATACTCGCTGGCTACACCACCACCCACCGGAGTCACCTAGTGCAG,10300 fluorescence intensity (a.u.)
16,CGAGATAATCCGTTTTTGTTCCGTATTCAAACTATCCGTACGGAGTCACCTAGTGCAG,9120 fluorescence intensity (a.u.)
17,CTCTCTAATCCATTGCCTCGTTTTTCTCTATAGACTATCTCGGAGTCACCTAGTGCAG,9760 fluorescence intensity (a.u.)
18,TGGATACATGGATGGTTGTGGCTGCTTCTCTTAATTCTTCCGGAGTCACCTAGTGCAG,11600 fluorescence intensity (a.u.)
19,CTAGAGTCTCCTCTTGCTCTCTTCTCGTCCGCCATTGATGCGGAGTCACCTAGTGCAG,8430 fluorescence intensity (a.u.)
20,ATGATATTGACAATGGGTCTATTCCGTTCAGCTGGGCTGTCGGAGTCACCTAGTGCAG,8920 fluorescence intensity (a.u.)
21,AACTTGAGCGTTGACCGCTTTGACTCCTCTTCTTTCTCCACGGAGTCACCTAGTGCAG,24900 fluorescence intensity (a.u.)

row,Sequence,binding signal
1,GCTTTATTATCTACAGTATTTTAAGCTCAACTTTTCGTTTCGGAGTCACCTAGTGCAG,10100 fluorescence intensity (a.u.)
2,ATTTCACATGGCAAGATCCACGATGACTGAATTATCACACCGGAGTCACCTAGTGCAG,8200 fluorescence intensity (a.u.)
3,CTGTGTTTGAAAGGGGCCCTTAGTTATGCCTTTATTAGACCGGAGTCACCTAGTGCAG,8820 fluorescence intensity (a.u.)
4,TCACAATGTAAGACTTTCTAGCACTGCCCACATTCATTTACGGAGTCACCTAGTGCAG,9670 fluorescence intensity (a.u.)
5,TCCCTCAAAATTTTGCTCCATTTACCGTTAGCTCAACGACCGGAGTCACCTAGTGCAG,9480 fluorescence intensity (a.u.)
6,ACACTACTACCCCTTGTTTTTTACATATCTTTTCCTGCTGCGGAGTCACCTAGTGCAG,9660 fluorescence intensity (a.u.)
7,AGGCCACCAAGAACGGCAAGCCCGTCCTCTACCTCGTCTTCGGAGTCACCTAGTGCAG,8540 fluorescence intensity (a.u.)
8,GGCAGCATCTCTCACAGTCACTATTAGTGTCTCCGGCTGTCGGAGTCACCTAGTGCAG,9230 fluorescence intensity (a.u.)
9,ACCCGCCGTCGCTCTCCAACGCGCTCGTCGCGGCGTTCAACGGAGTCACCTAGTGCAG,8970 fluorescence intensity (a.u.)
10,ACAACTCATCACATTTTAGGCAATTTTGTATCTGTATAGTCGGAGTCACCTAGTGCAG,8850 fluorescence intensity (a.u.)
11,CATCTCCGGCCTTCACACAAACACTCACACGAACGACTGACGGAGTCACCTAGTGCAG,9010 fluorescence intensity (a.u.)
12,AGAACATATATACTGCATCATCGTTTGCTCTTTAACTTATCGGAGTCACCTAGTGCAG,8080 fluorescence intensity (a.u.)
13,CACCGTGGGCGCAAGGTATCGAACTTGCTAGCCTCATCCTCGGAGTCACCTAGTGCAG,8160 fluorescence intensity (a.u.)
14,GTGATCGATCGATCTCATCCCCGCACGCGCTCCCTTCACCCGGAGTCACCTAGTGCAG,8560 fluorescence intensity (a.u.)
15,GTGCTCTTTTTTTGTTTTTGTTTTTGTGTTTTTCTTGAGGCGGAGTCACCTAGTGCAG,14400 fluorescence intensity (a.u.)
16,TTTCCATTTTCTTTTCGTCCAACCTTGATAATACATTTTTCGGAGTCACCTAGTGCAG,10300 fluorescence intensity (a.u.)
17,GAAAACTACACACACTTTGACACTTGGCACTTAAATACATCGGAGTCACCTAGTGCAG,8730 fluorescence intensity (a.u.)
18,TCACTCGCCTCGTCGCCGGAAAATTGCATTCGCGCCGCTCCGGAGTCACCTAGTGCAG,9410 fluorescence intensity (a.u.)
19,CCTTTTTTCATTTTCCCCTTTCTTCTTTTTTCCATGCATACGGAGTCACCTAGTGCAG,8270 fluorescence intensity (a.u.)
20,CGCCGCGACCTCGTCCACGGTCTTCGCCACCGTCTGCATCCGGAGTCACCTAGTGCAG,9970 fluorescence intensity (a.u.)
21,CGGTTTTGTTCATGTCCTTATATTTTCAACGCGGAACAGTCGGAGTCACCTAGTGCAG,9110 fluorescence intensity (a.u.)

# Quoted at random: 6 entries already listed, in no set order.
row,Sequence,binding signal
4,TGTATGTTATTATCTTTGTTACCCTTACATTACTTCCTTACGGAGTCACCTAGTGCAG,8760 fluorescence intensity (a.u.)
8,GGCAGCATCTCTCACAGTCACTATTAGTGTCTCCGGCTGTCGGAGTCACCTAGTGCAG,9230 fluorescence intensity (a.u.)
21,GTTAGGATTTTTTTTTCTTCCTCTGCTTCTTGGTTTGAACCGGAGTCACCTAGTGCAG,8190 fluorescence intensity (a.u.)
16,TTTCCATTTTCTTTTCGTCCAACCTTGATAATACATTTTTCGGAGTCACCTAGTGCAG,10300 fluorescence intensity (a.u.)
7,AGGCCACCAAGAACGGCAAGCCCGTCCTCTACCTCGTCTTCGGAGTCACCTAGTGCAG,8540 fluorescence intensity (a.u.)
2,GCCTTATTCTTCATGCCTAACGCAGCCCAGCTCAGCTACGCGGAGTCACCTAGTGCAG,10600 fluorescence intensity (a.u.)

# In another format: results already given.
row	Sequence	binding signal
7	AGCCTCCAACTAGTTATTTTTCTTTGAATTTGGCTAGATCCGGAGTCACCTAGTGCAG	8390 fluorescence intensity (a.u.)
8	ATATGCCTTTTTCATTCACTGGTCTCGCTACACATGCCTGCGGAGTCACCTAGTGCAG	8550 fluorescence intensity (a.u.)

# The results go on.

row,Sequence,binding signal
1,CCTTGTTGGTGTGTTGTGTGAAATATGTTCTATTTATTCACGGAGTCACCTAGTGCAG,8192 fluorescence intensity (a.u.)
2,ATACTGTTTCTTCTCTTTCCAACAAGATGTCATATGATTACGGAGTCACCTAGTGCAG,9320 fluorescence intensity (a.u.)
3,TTTTCTAGTGGTAAATATCCCATCTGGTCTTAGGTTCTTACGGAGTCACCTAGTGCAG,8360 fluorescence intensity (a.u.)
4,TCTCCCGTAACGCCATCCATACCCCGGCATTGCTCTGCCCCGGAGTCACCTAGTGCAG,8520 fluorescence intensity (a.u.)
5,TGTGCGTTCATAGGGGTGTGTGTGGGTGTGCGTGTGTGCGCGGAGTCACCTAGTGCAG,9820 fluorescence intensity (a.u.)
6,ACCACTGATATTTTTTCTTTGCTGTTTTCTGTATAGGTCGCGGAGTCACCTAGTGCAG,9960 fluorescence intensity (a.u.)
7,ACCCCGCGCGAGCTGCCGGCCTCCGCGCGCTCAGCCACTACGGAGTCACCTAGTGCAG,8180 fluorescence intensity (a.u.)
8,ACAATCACCATGTGGTCTCTGTGTAGCTGTTTTTTTCTCTCGGAGTCACCTAGTGCAG,10100 fluorescence intensity (a.u.)
9,CAAATTCGAACTTACGTCATCATCATCCATCCACAGACCTCGGAGTCACCTAGTGCAG,8730 fluorescence intensity (a.u.)
10,TAACTTGGTGCATTCATATTTTGGGTGTGTTTAGTTCACGCGGAGTCACCTAGTGCAG,8690 fluorescence intensity (a.u.)
11,CCGTGTGACCATCTGCTGGGTGGGGTCATCTGCCCAAATACGGAGTCACCTAGTGCAG,8550 fluorescence intensity (a.u.)
12,TTTGCGTTTCCGTCTCTCCCTCTCGCGGATTACTGCTCGCCGGAGTCACCTAGTGCAG,8150 fluorescence intensity (a.u.)
13,GATTGTATCAGTAGCGACGCACCCTATTTTTTAGCATTTTCGGAGTCACCTAGTGCAG,9300 fluorescence intensity (a.u.)
14,CCTTTTGCCTTCGGCCCGGCCCATATATCGCCTCAAATTCCGGAGTCACCTAGTGCAG,13000 fluorescence intensity (a.u.)
15,TTTTGTATCGCAGCTACTTGTCCACTGTGTTCTATCAAAGCGGAGTCACCTAGTGCAG,8280 fluorescence intensity (a.u.)
16,AAGGAGCAAGTGGAGGAGCAAGGCTTTGTTTTTTGTTTTTCGGAGTCACCTAGTGCAG,8140 fluorescence intensity (a.u.)
17,GCAAATCATTATCTCGTCTAAAATTTTCGTTTTTTTAATTCGGAGTCACCTAGTGCAG,11200 fluorescence intensity (a.u.)
18,TCGCGCTGTTGAACTCGGCCGGCGAGTCCGCGGCTTCCGTCGGAGTCACCTAGTGCAG,8640 fluorescence intensity (a.u.)
19,CGATAGTGGTGCGGAGCGTCGGGTTGGGGATCAGGTCGTTCGGAGTCACCTAGTGCAG,8220 fluorescence intensity (a.u.)
20,TTGGGGTATATTTGTTCAACTCTATGCTGATTAATTTTTTCGGAGTCACCTAGTGCAG,15500 fluorescence intensity (a.u.)
21,TCCATAGATTCTCCCTGCATTTTGTTCTTGGCAGACTATTCGGAGTCACCTAGTGCAG,9300 fluorescence intensity (a.u.)

# From paper PMC7819943, “Rice protein-binding microarrays: a tool to detect cis-acting elements near promoter regions in rice”
